In PubChem BioAssay AID493014 (National Center for Advancing Translational Sciences (NCATS), 2011):
The other results are listed elsewhere or left out. These are further read-outs of the screen, such as a control signal, another cell line or another target. No call is given for them. Most of these compounds were active or inconclusive in the main read-out, so they are no random draw. Potencies come from curve fits of mixed quality, noted in brackets.

Assay: qHTS Assay to Find Inhibitors of Chronic Active B-Cell Receptor Signaling
Conditions: ABC-DLBCL IkBa-CBG/CBR reporter, luminescence ratio (green luciferase fused to IkBa over red control in TMD8 lymphoma cells), 4 h
Summary of the method: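 Doxycycline induced both beetle luciferases in TMD8 lymphoma cells; IKK-driven degradation limits the IkappaBalpha-fused green signal, while red luminescence normalises for cell number and nonspecific effects. Compounds tested up to 46 uM, 4 hrs.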

[1] = measured here: CBR red luminescence, cell number

SMILES | AC50 [1] | AC50 (measured here: IkBa-CBG green luminescence)
COc1ccc(S(=O)(=O)N2CCOC2CNC(=O)C(=O)NCCCc2ccccc2)cc1 (centres undefined) | 0.708 µM [rising, full curve, poor fit] | –
CCCc1cc(C(=O)Nc2cc(Br)ccc2O)no1 | 0.259 µM [rising, full curve, poor fit] | –
Cc1ccc(Oc2ccc(NC(=O)Cn3ccsc3=N)cc2)cc1 | 9.2 µM [falling, partial curve, poor fit] | –
COc1cccc(C(=O)O/N=C(\C)c2cnccn2)c1 | 6.31 µM [rising, single point] | –
O=C(NC(=S)NN1CCCCC1c1cccnc1)c1ccc(Cl)cc1Cl (centres undefined) | 6.31 µM [rising, single point] | –
O=S(=O)([O-])CCC[N+]1(CC#Cc2ccccc2)CCCCC1 | 11.2 µM [rising, partial curve, poor fit] | –
C=CCSc1nc(=O)n2cccc(C)c2n1 | 16.4 µM [rising, partial curve, poor fit] | –
O=C(c1ccccc1)[C@@H]1[C@@H]2C(=O)N(c3ccc(F)cc3)C(=O)[C@@H]2C2CCCN21 (some centres undefined) | 10 µM [falling, partial curve] | –
O=C(O)c1ccc(Nc2nc3ccccc3nc2NS(=O)(=O)c2ccc(F)cc2)cc1 | 0.501 µM [falling, full curve] | –
CCOc1ccc(CN(C)c2nc(-c3cccnc3)nc3ccccc23)cc1OC | 35.5 µM [falling, single point] | –
CC(Nc1ccc(Br)cn1)c1cc(Cl)ccc1O (centres undefined) | 2.31 µM [falling, partial curve, poor fit] | –
COc1ccc(S(=O)(=O)N(C)C[C@H]2Oc3c(NC(=O)C4CCCCC4)cccc3C(=O)N([C@H](C)CO)C[C@@H]2C)cc1 | 6.51 µM [falling, single point] | –
CCOC(=O)c1c(Nc2ccc(Cl)cc2)sc(/C=C2\C=Nc3ccccc32)c1O | 0.146 µM [falling, full curve, poor fit] | –
CCN(C(=O)COc1ccccc1[N+](=O)[O-])C1CCS(=O)(=O)C1 (centres undefined) | 13 µM [falling, partial curve] | –
Cn1c(=O)c2c(nc(CN3CCc4ccccc4C3)n2Cc2ccccc2F)n(C)c1=O | 29.1 µM [falling, single point] | –
Cn1cccc1-c1nc2ccc(NC(=O)c3ccco3)cc2[nH]1 | 4.61 µM [falling, full curve, poor fit] | –
Cc1cc(C(=O)N=Nc2c(O)n(C(C)C)c3ccccc23)n[nH]1 | 8.91 µM [rising, partial curve] | –

Copied from the entries so far, 2 compounds:
SMILES | AC50 [1] | AC50 (measured here: IkBa-CBG green luminescence)
CCOC(=O)c1c(Nc2ccc(Cl)cc2)sc(/C=C2\C=Nc3ccccc32)c1O | 0.146 µM [falling, full curve, poor fit] | –
CCN(C(=O)COc1ccccc1[N+](=O)[O-])C1CCS(=O)(=O)C1 (centres undefined) | 13 µM [falling, partial curve] | –

More results follow:

SMILES | AC50 [1] | AC50 (measured here: IkBa-CBG green luminescence)
O=c1c2c(-c3ccc([N+](=O)[O-])cc3)ccnc2[nH]n1-c1ccccc1 | 11.2 µM [rising, partial curve, poor fit] | –
Cc1ccc(OCCC(=O)OCC(=O)NC(=O)c2ccccc2)cc1 | 14.6 µM [rising, partial curve] | –
Fc1ccc(-c2nnc(-c3ccc(Cl)cc3)o2)cc1 | 0.251 µM [rising, full curve, poor fit] | –
COc1ccc(OCc2cccc(C(=O)Nc3ccc(CN4CCCCC4)cc3)c2)cc1 | 32.6 µM [falling, single point] | –
CNC(=S)Nc1ccc(OC(F)(F)F)cc1 | 35.5 µM [rising, single point] | –
COc1ccccc1C1CC(=O)n2c(nc(-c3ccccc3)c2-c2ccccc2)S1 (centres undefined) | 18.4 µM [falling, partial curve, poor fit] | –
CC(=O)Nc1cccc(Oc2nc(C)cc(C)c2C#N)c1 | 29.1 µM [rising, single point] | –
CCCn1nnc(NC(=O)/C=C/c2ccccc2)n1 | 35.5 µM [falling, single point] | –
CCOC(=O)c1sc(Nc2ccc(Br)cc2)nc1C | 0.562 µM [rising, full curve] | –
CC(C)(C)c1ccc(C(=O)C2CCCN(C(=O)c3ccccn3)C2)cc1 (centres undefined) | 3.16 µM [rising, full curve] | –
Cc1ccc(OCCNC(=O)/C=C/c2ccccc2)cc1 | 23.1 µM [rising, partial curve, poor fit] | –
CN(C)C(=O)COc1ccc(C(=O)/C=C/c2cccnc2)cc1 | 11.2 µM [falling, partial curve] | 11.2 µM [rising, partial curve, poor fit]
Cc1cc(C(=O)COc2ccc([N+](=O)[O-])cc2)c(C)n1C1CC1 | 1.26 µM [rising, full curve, poor fit] | –
Cc1ccccc1NC(=O)C(=O)NCCCN1CCCC1=O | 4.61 µM [falling, full curve, poor fit] | –
C=C(C(=O)Oc1ccccc1C(C)(C)C)c1ccccc1 | 25.9 µM [falling, single point] | –
CC(NC(=O)CSc1nnc(COc2ccccc2)o1)c1ccccc1 (centres undefined) | 35.5 µM [rising, single point] | –
